Results taken from patent US20050163775A1, “Combination therapy for B cell disorders” (Genentech, Inc., priority 2003, published 2005).
Some entries share one result that the patent states for a list of compounds.

Tested on: marginal zone (MZ) and follicular (FO) B cells
Experiment: Quantitation of spleen B cell loss four days after single doses in hCD20 Tg+ mice (FIG. 31)
Assay type: in vivo, mouse
Settings: single doses of 0.1 mg, splenocytes day 4

Substance: BR3-Fc: hBR3-Fc immunoadhesin of SEQ ID NO. 2, BAFF antagonist
- loss of FO B cells: 33-70%
- loss of MZ B cells: 40-50%
